In publication PMC10931843:
Results are given in words; binding and its absence hold for the method and conditions named. For some assays here: A result given as binding can be weak or reduced; the word gives no strength.

Chains of the proteins cited; added tags and fusions are not shown.
UniProt Q7Y040: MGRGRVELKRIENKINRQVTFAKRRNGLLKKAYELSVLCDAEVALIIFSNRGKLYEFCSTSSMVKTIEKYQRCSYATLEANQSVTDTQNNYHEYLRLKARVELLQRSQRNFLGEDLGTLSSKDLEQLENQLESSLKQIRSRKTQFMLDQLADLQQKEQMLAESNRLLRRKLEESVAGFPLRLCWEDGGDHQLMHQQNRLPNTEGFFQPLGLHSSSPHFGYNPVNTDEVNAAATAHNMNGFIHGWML
UniProt K4DEK0: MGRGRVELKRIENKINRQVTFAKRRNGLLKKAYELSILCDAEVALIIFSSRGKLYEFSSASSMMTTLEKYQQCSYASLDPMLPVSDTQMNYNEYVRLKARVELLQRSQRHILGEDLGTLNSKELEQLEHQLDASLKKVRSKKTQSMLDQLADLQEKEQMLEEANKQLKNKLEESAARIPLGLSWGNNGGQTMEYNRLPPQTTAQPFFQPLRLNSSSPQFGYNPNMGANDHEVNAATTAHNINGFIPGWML

How the values were obtained:
[1] = molecular target: SlMADS1 (tomato (Solanum lycopersicum)) (UniProt Q7Y040); assay: two-hybrid; … GAL4 Two-Hybrid System III; baits in pGBKT7 in yeast Y2Hgold, preys in pGADT7 in yeast Y187; growth on QDO (SD lacking Trp, Leu, His, adenine) and blue colour on QDO/X (with X-alpha-Gal)
[2] = molecular target: SlMBP21 (tomato (Solanum lycopersicum)) (UniProt K4DEK0); assay: as above

TAGL1 (TOMATO AGAMOUS-LIKE1) (from UniProt Q8H281)
binding [1]: no binding
binding [2]: binds
